The text below walks through data of PubChem BioAssay AID1347423 (Functional Genomics Laboratory (NCATS/FGL), 2020).

The campaign covered roughly 52,000 sequences. About 210 (0.4%) were called active.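 How the source made its calls: active means gene whose silencing raises cell survival under the drug, median off-target-corrected z-score across its silencing RNAs 2 or more; inactive means the rest.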 Some of the results follow.

The nature of this assay: Resistance to Poly (ADP-Ribose) Polymerase inhibitor: Gene Identification via Genome-wide siRNA Screen. Particulars: mouse BRCA2 R2336H ES cells, olaparib, CellTiter-Glo viability; active compounds read high. The procedure, abridged:
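Genome-wide siRNA screen (3 siRNAs/gene, 20 nM) in mouse ES cells carrying hypomorphic BRCA2 R2336H; olaparib 500 nM added 48 h post-transfection, CellTiter-Glo viability 72 h later. Normalized to plate-median negative control; MAD z-scores, gene median, seed-adjusted.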
For orientation: Cellular ATP, detected with luciferase, serves as a proxy for viable cell number.
With “GCUAGUUGGAGCUAGAUUATT against E130320D18”, the z-score is inactive: 0.013.

Regarding “GCCAACCAUCUUUUGACAGTT against 6530418L21Rik”, the z-score was inactive: -0.663.

With GGAGUGGUGUGUCAUUGAUTT against Impact, the z-score is inactive: -0.052.

Consider GCUUCUUAUGGUCACUUAATT against Asb12, for which the z-score was inactive: -2.48.

In the case of GGAAGAGGUCUUUAAUACATT against Kif4, the z-score is inactive: 0.0924.

As for CCGUGGUUUCUACAGUGUUTT against Ppp4c, the z-score is inactive: -0.563.

Take GGUAGAAGAUUCAAAAUCUTT against Canx: the z-score is inactive: 0.549.

On to GAUUCUCAUCUCAAUAAGCTT against Serpinb9g, for which the z-score was inactive: -0.197.

On to GGCUACAAGAGCUUGCUCUTT against Dna2l, for which the z-score is inactive: -1.28.

Consider “GGAAGACAUCUGAAACGAUTT against 2510005D08Rik”, for which the z-score was inactive: 0.753.

As to GGUGUCAGGGCAGUGUAAATT against Bach1, the z-score was inactive: 0.0246.

Regarding CGACUCUCCAUCCUUAACATT against Dlx4, the z-score is inactive: -2.44.

In the case of “GCUCAGCUUGCUUCACUCATT against 1810049O03Rik”, the z-score is inactive: -2.64.

In the case of GCUGUGAUCUGAGGAGACUTT against Igf1, the z-score is inactive: 0.5.

On to “GGUGUGAUAAUGAAACCAATT against A630029G22Rik”, for which the z-score is inactive: -0.73.

For the sequence “CCCUCAAGUCGCACCUUUUTT against C130007D14”, the z-score is inactive: -1.45.

As to GGUCAUUAUUGUCAUCUACTT against Tmem9, the z-score is inactive: -0.334.

Consider GGUUCACAUCCUCCUCAGATT against Twist2, for which the z-score was inactive: 0.354.

For GCCAAUGAUGUAGCAAAUUTT against Slc20a1, the z-score was active: 2.1.

As for GGACUGAAAGACUUGCUCGTT against Hprt1, the z-score was inactive: -0.69.

GGUCAUUGGCACCAACAAGTT against Tgfbi: the z-score is inactive: 1.1.

Take CGUUUUCUCCUUCGAUCUUTT against Sema6c: the z-score is inactive: 2.63.

CCUAAUUAAGGUUUCUGUUTT against C8a: the z-score was inactive: -0.0444.

With GGCGAUACCUAAAACAUCUTT against Noxa1, the z-score is inactive: 3.65.

Consider CCCGGGUGUUUUUGCCUAUTT against Kcnc4, for which the z-score was inactive: -1.83.

For the sequence “GCCAUAAGUUAUGAUGUGGTT against A930004D23Rik”, the z-score is inactive: -0.376.

“GGCCUAGAUCAAUACCAAGTT against 4930433I11Rik”: the z-score was inactive: 0.938.

GGUUCCACUCAUUGUCUCGTT against Fndc5: the z-score was inactive: 0.312.

With GGAACACUAAAACUCAACUTT against Gpr146, the z-score was inactive: -0.575.

Regarding GGCUCAAGCAUUAAUUAAUTT against LOC208943, the z-score is inactive: 0.0156.

Turning to GGGUAUGACAACAAACUUCTT against Gabrg2, the z-score was inactive: 1.29.

GGAUAUACACAACAGGCACTT against Wbp5: the z-score was inactive: 0.204.

With GGAUCAAGAAACCAGACUATT against Mrpl23, the z-score is inactive: -2.16.

As for GGCAUCAAAGACAAUACAATT against V1rc6, the z-score is inactive: -0.854.

Consider GGAGCUGAGGAGAAAGACATT against CRAD-L, for which the z-score was inactive: -0.541.

On to GCUCACCCUAUUUGCUGCCTT against Kcnj15, for which the z-score was inactive: 0.763.

On to GGCUGCUAAUUGGAUUUUUTT against Ccnj, for which the z-score is inactive: 0.246.

As to GGGCUACAUGCCAUAUUUATT against Swap70, the z-score was inactive: -0.783.

For GGAAUUCCCAUAAAUCAGUTT against BC004012, the z-score was inactive: -1.05.

With GCUCUCUUGUGCUCCAACATT against Olfr531, the z-score was inactive: -1.01.

Regarding CCUGCUUGCCAACACCAUATT against Slc39a13, the z-score is inactive: 0.395.

For CGGUGCACAACGUACCAAUTT against Npn3, the z-score is inactive: -0.555.

Consider GGUCGAAUGACUCAUCUUATT against Hs3st3a, for which the z-score was inactive: 0.926.

For the sequence CGAGGAUGCCCUAAGGGUUTT against Lrrtm3, the z-score was inactive: 0.0169.

Regarding CUACGAGCCACUUCUGAGATT against Krt2-25, the z-score was inactive: -0.587.

On to GGAGGAAAACAAACCACAGTT against Tpbpa, for which the z-score is inactive: -0.317.

Take GCCCUUGUUACAGAUUCUCTT against V1rd17: the z-score was inactive: 0.00518.

In the case of GGUGCAAUUAUUUGAUCAUTT against Ptprb, the z-score is inactive: 1.12.

As for GCUUAUAAUGCCAUUACUUTT against Rad21, the z-score is inactive: -3.44.

Consider GGAAGACGGCAACUAUCCATT against Cyp2c50, for which the z-score is inactive: 0.192.

Regarding GCUACUGCAGUAUACAUUGTT against Olfr869, the z-score is inactive: 1.15.

Consider GGGAAAGAGAAAUUUAAAGTT against Kcne4, for which the z-score was inactive: 2.17.

For GGUUCAUCAAACUUGCUUGTT against Olfr1312, the z-score was inactive: -0.0246.

Regarding GGACUAUCCAGGAAUCGUGTT against Sdbcag84, the z-score is inactive: 0.945.

CCAACAUCGAGCUAGCCACTT against Psma5: the z-score is inactive: -2.4.

GGCUCUACAUUCCAGAGGUTT against Slc35c2: the z-score is inactive: 0.143.

With GCCCGUGUGCCCAAGAAAATT against Pde6d, the z-score was inactive: 0.785.

In the case of GGAGGAAUUCAUUAGAAACTT against Psmc1, the z-score was inactive: -2.23.

Consider GGUGGACCUAGGUAACAUGTT against Cyp2d9, for which the z-score is inactive: -1.55.

As for “GGCACUUCAACAGCAGUUATT against 5830418K08Rik”, the z-score was inactive: 1.48.

On to GGACCUACAUAACAAGCUUTT against BC051244, for which the z-score is inactive: -1.14.

Take “GGGAAAGUGACUCCUGCUATT against 3110037I16Rik”: the z-score is inactive: -0.265.

Take CCCAAAGGUCUAAUGUAAATT against Prok2: the z-score is inactive: -0.399.

With GGAUGAAAGCCAUUAAGUUTT against T2bp, the z-score was inactive: -0.817.

Regarding GGUCAUUCAUAAAGAUUGATT against Kcnma1, the z-score was inactive: 1.27.

On to CCCUGGCUGAGUGCUUUGUTT against Olfr199, for which the z-score is inactive: -0.39.

For the sequence “CGGUGUUAAAUCCAUGAGUTT against 6430706D22Rik”, the z-score was inactive: 0.961.

Regarding GGAGCUACGAGGAAUUGGUTT against Wdr9, the z-score is inactive: -0.134.

For the sequence CCAAGAAUCAAGCUGUGAATT against Arpc5l, the z-score was inactive: -0.185.

In the case of GGAUUUUUCCAUAAAAACCTT against B3galt3, the z-score is inactive: 0.22.

In the case of GCUUUACGGUCAAUUAGCCTT against Nr2e1, the z-score was inactive: 0.915.

Turning to “GGUGGUUGAUCUGCUAAGGTT against 2810046L04Rik”, the z-score is inactive: 0.503.

For CCCUCACAUUCGUCUACCUTT against Gpr24, the z-score was inactive: 0.75.

As to GGUGGAUGUGUCAGAAUACTT against Alox15, the z-score is inactive: -1.6.

For “GCACAAGGUUCAAAAAGGCTT against F630043A04Rik”, the z-score was inactive: -0.729.

For the sequence UAGUCAUCUUCAUUCUCCUTT against Olfr1251, the z-score was inactive: -0.542.

“GGUGGUAAAUCGAAUUGUUTT against 2500001K11Rik”: the z-score is inactive: 0.385.

Take “GGAAAAGGUCAUUAUCAUUTT against B230358A15Rik”: the z-score is inactive: 1.

For the sequence “GGUAAAUCAUGUUUACUCUTT against 2610034H20Rik”, the z-score is inactive: -0.861.

Consider GCAUAACAUGCUCUUCCAUTT against Mtmr1, for which the z-score was inactive: -0.365.

GCAUAAUAAGCCAAUUCUGTT against Crsp6: the z-score was inactive: -0.242.

For GGGAUUCUCCAAAAGGAAGTT against Arhgap6, the z-score is inactive: 1.13.

As to GCCUCGGGUAGUGAAGUCUTT against Zc3hdc3, the z-score is inactive: 0.973.

Take GGAACAAGCUGUCUUAGAGTT against Olfr157: the z-score is inactive: 0.499.

On to GGAAUGGUUUGGUGAGUUUTT against Pramel1, for which the z-score was inactive: 1.35.

In the case of “GUCGCUCUUCUAAAACUUUTT against 1110003E08Rik”, the z-score was inactive: 0.927.

On to GGUAGACUUCAUCCUAGGCTT against Olfr62, for which the z-score is inactive: 0.519.

For the sequence GCUUGGAAGGGACUUCAAUTT against Trp73, the z-score is inactive: 0.336.

On to GGAUAAUGGUAUCUACUUCTT against Cd79b, for which the z-score is inactive: -0.408.

On to GGAGUGAGACAAUUCUCACTT against Sprr2k, for which the z-score was inactive: 0.0887.

Turning to GCGUGGUCUUAACUGCUCATT against Zfp406, the z-score is inactive: -2.88.

On to “GCAAGUAGAAACCCUUAAUTT against 4933425F03Rik”, for which the z-score is inactive: -1.65.

On to GGUUGAUGAUAGCUCUGAATT against Opn1mw, for which the z-score is inactive: -1.5.

As to GGUACAAAGCCAUUGUACGTT against Grpr, the z-score is inactive: 0.188.

GGUCUUUCCAAUGUUCACATT against Nos1: the z-score is inactive: -0.182.

As for GGUGAUUCGUCAGAAGCUGTT against Gpr84, the z-score was inactive: 0.504.

As for CCAUGAGUUAGUGUUCGGUTT against Blmh, the z-score was inactive: 1.1.

Take GCCUGACAGAAUUAUUUGCTT against Trnt1: the z-score is inactive: -0.16.

GGAAGUGAAUAUUGAGUUUTT against Bccip: the z-score was inactive: -0.957.

As for “GGCUACAAAUCCAACUAUCTT against 4930579J09Rik”, the z-score is inactive: -0.707.

GAUCUUCCUGACAGUGGUGTT against Psors1c2: the z-score is inactive: -0.37.

Turning to CGAGAAGGAUAUAAUUGUUTT against AW545966, the z-score is inactive: -0.545.

As for GGAAAAAGACCAUCUGUGGTT against Plk3, the z-score was inactive: -0.871.

Turning to CCGUUACAAACCAAGACCUTT against Flt3, the z-score is inactive: 0.564.
